These are yes or no findings as the source states them, for the method shown. Binding seen in cells or lysates may run through a third protein. These calls come from enrichment with a bait or labelling near it, and not all partners need be listed.
Experiments:
[1] = biological target: N-terminally 3xFLAG-tagged GPER1 fused to APEX2 (UniProt Q99527); test: proximity labelling; F-GPER1-APEX2 in transfected HEK293T cells; 500 µM biotinyl tyramide 45 min, 1 mM H2O2 1 min, without or with 100 nM E2 for 10 min; RIPA lysate, streptavidin magnetic beads, LC-MS/MS; compared with F-APEX2-NES; 3 biological replicates
[2] = biological target: N-terminally 3xFLAG-tagged GPER1 (G protein-coupled estrogen receptor 1) (UniProt Q99527); test: affinity purification with mass spectrometry; F-GPER1 or F-GPER1-APEX2 in transfected HEK293T; lysis buffer 10 mM Tris-HCl pH 7.5, 50 mM NaCl, 1 mM EDTA, 10% glycerol, 10 mM Na-molybdate; anti-FLAG IP overnight at 4 °C, Protein G Dynabeads, mouse IgG as control; LC-MS/MS
[3] = biological target: N-terminally 3xFLAG-tagged GPER1 fused to APEX2 (UniProt Q99527); test: as above

By UniProt entry, the sequences of proteins in these tests, tags left out. Residues count along the entry.
UniProt Q99527: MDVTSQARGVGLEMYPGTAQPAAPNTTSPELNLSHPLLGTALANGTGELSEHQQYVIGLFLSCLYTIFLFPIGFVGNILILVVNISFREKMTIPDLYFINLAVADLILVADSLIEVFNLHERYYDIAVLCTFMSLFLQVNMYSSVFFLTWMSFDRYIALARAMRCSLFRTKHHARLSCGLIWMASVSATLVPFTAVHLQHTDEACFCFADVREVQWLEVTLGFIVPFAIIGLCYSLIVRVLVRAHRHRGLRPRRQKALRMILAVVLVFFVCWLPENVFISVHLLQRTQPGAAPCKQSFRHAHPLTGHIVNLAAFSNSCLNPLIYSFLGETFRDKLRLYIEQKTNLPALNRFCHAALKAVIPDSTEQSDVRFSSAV
UniProt P14314, residues 15-528: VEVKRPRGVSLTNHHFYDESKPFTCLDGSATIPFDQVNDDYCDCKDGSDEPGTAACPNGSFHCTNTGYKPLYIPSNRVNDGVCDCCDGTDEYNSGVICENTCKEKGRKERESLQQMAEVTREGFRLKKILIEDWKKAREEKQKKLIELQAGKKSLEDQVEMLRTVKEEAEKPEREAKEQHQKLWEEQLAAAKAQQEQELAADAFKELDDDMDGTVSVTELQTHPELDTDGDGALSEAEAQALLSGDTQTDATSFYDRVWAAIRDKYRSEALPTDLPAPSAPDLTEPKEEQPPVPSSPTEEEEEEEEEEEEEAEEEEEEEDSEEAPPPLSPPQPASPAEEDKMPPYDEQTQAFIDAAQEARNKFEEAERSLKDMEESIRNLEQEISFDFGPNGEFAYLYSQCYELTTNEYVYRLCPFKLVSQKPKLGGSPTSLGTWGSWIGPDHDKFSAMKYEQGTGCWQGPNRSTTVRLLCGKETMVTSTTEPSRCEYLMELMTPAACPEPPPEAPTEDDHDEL
UniProt Q13586, residues 23-685: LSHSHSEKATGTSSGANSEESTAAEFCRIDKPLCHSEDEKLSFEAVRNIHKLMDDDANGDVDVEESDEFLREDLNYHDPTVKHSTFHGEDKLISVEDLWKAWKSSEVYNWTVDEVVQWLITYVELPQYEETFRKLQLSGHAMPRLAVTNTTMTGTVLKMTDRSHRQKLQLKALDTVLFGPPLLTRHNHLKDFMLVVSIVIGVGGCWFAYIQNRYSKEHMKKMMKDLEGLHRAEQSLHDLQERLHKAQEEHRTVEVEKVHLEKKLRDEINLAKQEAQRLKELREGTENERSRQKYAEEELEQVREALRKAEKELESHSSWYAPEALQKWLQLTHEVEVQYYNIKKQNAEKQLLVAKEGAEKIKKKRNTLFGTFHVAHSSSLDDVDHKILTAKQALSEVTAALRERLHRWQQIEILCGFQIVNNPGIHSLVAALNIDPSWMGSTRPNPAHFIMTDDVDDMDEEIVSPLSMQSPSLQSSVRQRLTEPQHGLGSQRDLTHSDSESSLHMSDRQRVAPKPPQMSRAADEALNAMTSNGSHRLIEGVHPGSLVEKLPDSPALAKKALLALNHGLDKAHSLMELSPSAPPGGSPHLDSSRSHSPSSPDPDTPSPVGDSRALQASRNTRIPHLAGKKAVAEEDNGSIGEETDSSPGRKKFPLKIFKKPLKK

Measured: binding

protein kinase C substrate 80K-H (PRKCSH), regulatory subunit of α-glucosidase II (from UniProt P14314 15-528)
binds: all assays above

STIM1 (from UniProt Q13586 23-685)
binds: all assays above

Reference: paper PMC10650109
